The target of assay [1] is CD69 (antigen used for phage panning and ELISA) (human) (UniProt Q07108). Description: ELISA validation of phage display clones. A general note: An ELISA detects its analyte on a solid surface through an enzyme-linked reagent.
Assay [2] concerns the target T1, CD84 (antigen used for phage panning and ELISA) (human) (UniProt Q9UIB8).
T1 sequence (looked up): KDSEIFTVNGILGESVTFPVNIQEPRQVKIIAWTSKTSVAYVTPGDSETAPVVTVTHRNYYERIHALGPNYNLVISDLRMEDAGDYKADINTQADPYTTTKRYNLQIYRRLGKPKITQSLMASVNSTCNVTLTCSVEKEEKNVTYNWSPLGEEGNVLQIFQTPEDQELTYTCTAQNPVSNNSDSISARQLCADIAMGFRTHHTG
Description: ELISA validation of phage display clones.

Amino acid sequences for entries named in this document (tags omitted). Residues count along the entry.
UniProt Q07108, residues 62-199: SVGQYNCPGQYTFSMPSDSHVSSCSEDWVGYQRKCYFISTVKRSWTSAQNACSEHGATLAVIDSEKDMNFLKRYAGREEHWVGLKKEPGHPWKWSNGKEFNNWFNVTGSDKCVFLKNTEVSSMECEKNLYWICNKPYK

Assay [3] has as its target T1, CD84 (antigen used for phage panning and ELISA) (human). In words: specific scFvs identified within a human naive phage library.
Assay [4] deals with CD69 (antigen used for phage panning and ELISA) (human) (UniProt Q07108). Described as above.

Results are given in words; binding and its absence hold for the method and conditions named. Some binding calls cover weakened binding; strength is not graded here.

B1: F2 scFv (scFv)
scFv: QVQLQQSGPGLVKPSQTLSLTCAISGDSVFSNSASWNWIRQSPSRGLEWLGKTEYRSKWFDEYAPSVKGRIAIRPDTSKNQVSLQLNSVTPEDTAVYYCVRDSYNGYDFDGFDIWGQGTLVTVSSGGGGSGGGGSGGGGSGGGGSQSVLTQPPSVSAAPGQKVTISCSGGSSNIEKNYVSWYQQLPGTAPKLLIYDTNKRPSGIPDRFSGSKSGTSATLGITGLQTGDEADYYCGAWDNILNSEMFGGGTKLTVL
Regarding B1, in assay [1], the binding result is on record as “binds”.

B2: 14722-P1-F12 scFv (scFv)
scFv: QVQLQQSGPGLVKPSQTLSLTCAISGDSVSSNSASWNWIRQSPSRGLEWLGKVEYRSKWYDEYAPSVKSRIAIRPDTSKNQVSLHLISVTPDDTAVYYCARDSYNGHAFDGFDVWGQGTMVTVSSGGGGSGGGGSGGGGSGGGGSQSVVTQPPSVSAAPGQKVTISCSGSSSNIGNNYVSWYQQLPGTAPKLLIYDNNKRPSGIPDRFSGSKSGTSATLGITGLQTGDEADYYCGTWDSSLSAEVFGGGTKVTVL
Turning to B2, the binding entry in assay [2] and in assay [3] was “binds” in each case.

B3: 14722-P1-B8 scFv (scFv)
scFv: QVQLQQSGPGLVKPSQTLSLTCAISGDSVSSNSASWNWIRQSPSRGLEWLGKVEYRSKWYDEYAPSVKSRIAIRPDTSKNQVSLHLISVTPDDTAVYYCARDSYNGHAFDGFDVWGQGTMVTVSSGGGGSGGGGSGGGGSGGGGSQSVLTQPPSLSAAPGQRVTISCSGTTSNIANNFVSWYQQLSGSAPKLLINDNNKRPSGIPDRFSGSKSGASATLAITGLQTEDEADYYCGVWDNSLNAEVFGGGTKVTVL
Consider B3, for which the binding entry in assay [2] and in assay [3] was “binds” in each case.

B4: C1 scFv (scFv)
scFv: QVQLQQSGPGLVKPSQTLSLTCAISGDSVSSNSASWNWIRQSPSRGLEWLGKTEYRSKWYYEFAPSVKSRITITPDTSKNQFSLQLNSVTPEDTAVYYCVRDSYNGYDFDGFDIWGQGTLVTVSSGGGGSGGGGSGGGGSGGGGSQSVLTQPPSVSAAPGQKVTISCSGSSSNIGSNYVAWYQQLPGTAPKLLIYDTNKRPSGIPDRFSGSKSGTSATLGITGLQTGDEADYYCGTWDSSLSAEVFGTGTKVTVL
As to B4, in assay [1], the binding result was “binds”.

B5: C2 scFv (scFv)
scFv: QVQLQQSGPGLVKPSQTLSLTCAISGDSVSSNSASWNWIRQSPSRGLEWLGKVEYRSKWYDEYAPSVKSRIAIRPDTSKNQVSLHLISVTPDDTAVYYCARDSYNGHAFDGFDVWGQGTLVTVSSGGGGSGGGGSGGGGSGGGGSQSVLTQPPSVSAAPGQKVTISCSGSSSNIGDNLVSWYQQLPGTAPKLLIYDNNKRPSGIPDRFSGSKSGTSATLDITGLQTGDEADYYCESWDNNLTAEVFGTGTKVTVL
For B5, the binding result in assay [1] is on record as “binds”.

B6: F1 scFv (scFv)
scFv: QVQLQQSGPGLVKPSQTLSLTCAISGDSVFSNSASWNWIRQSPSRGLEWLGKTEYRSKWFDEYAPSVKGRIAIRPDTSKNQVSLQLNSVTPEDTAVYYCVRDSYNGYDFDGFDIWGQGTLVTVSSGGGGSGGGGSGGGGSGGGGSQSVLTQPPSVSAAPGQQVIISCSGSSSNVGNNYVAWYQQVPGAAPRLLIYDNYKRPSGIPDRFSGSKSGTSATLGITGLQSGDEADYYCGSWDSSLSAEVFGGGTKLTAL
Take B6: in assay [1], the binding result is “binds”.

B7: 14721-P1-H3 scFv (scFv)
scFv: QVQLQQSGPGLVKPSQTLSLTCDISGDSVFSNTASWNWIRQSPSRGLEWLGKTEYRSQWLHEYAPSVRSRIAIRPDTSKNQVSLQLSFVTPEDTAVYYCVRDSYNGYAFDGFDTWGQGTLVTVSSGGGGSGGGGSGGGGSGGGGSQSVVTQPPSVSAAPGQKVTISCSGRNSNIANNFVSWYRQLPGTAPKLLIYDNNKRPSGIPDRFSGSKSGTSATLAITGLQTGDEADYYCESWDSSLTAEVFGTGTKVTVL
In the case of B7, the binding result in assay [1] and in assay [4] was “binds” throughout.

B8: 14721-P1-G1 scFv (scFv)
scFv: QVQLQQSGPGLVKPSQTLSLTCAISGDSVFSTTASWNWIRQSPSRGLEWLGKTEYRSKWFDEYAPSVKGRIAIRPDTSRNQVSLQLNSMTPEDTAVYFCVRDSYNGYDFDGFDIWGQGTTVTVSSGGGGSGGGGSGGGGSGGGGSQSVVTQPPSVSAAPGQKVTISCSGSSSNIGNNYVSWYQQLPGTAPKLLIYDNNKRPSGIPDRFSGSKSGTSATLGITGLQTGDEADYYCGTWDSSLSAEMFGGGTKVTVL
Take B8: the binding entry in assay [1] and in assay [4] was “binds” throughout.

B9: H2 scFv (scFv)
scFv: QVQLQQSGPGLVKPSQTLSLTCAISGDSVFSNSASWNWIRQSPSRGLEWLGKTEYRSKWFDEYAPSVKGRIAIRPDTSKNQVSLQLNSVTPEDTAVYYCVRDSYNGYDFDGFDIWGQGTLVTVSSGGGGSGGGGSGGGGSGGGGSQSVVTQPPSVSAAPGQKVTISCSGSSSNIGNNYVSWYQQLPGTAPKLLIYDNNKRPSGIPDRFSGSKSGTSATLGITGLQTGDEADYYCGTWDSSLSAEVFGGGTKLTVL
With B9, the binding result in assay [1] is “binds”.

B10: A1 scFv (scFv)
scFv: QVQLQQSGPGLVQPSRTLSLTCAISGDSISSNTASWNWIRQSPSRGLEWVGKTEYRSGWFFEYAPSVGGRVNISPDTSKNQFSLQLNSVTPEDTAVYFCARDSYNDYDNDGFDIWGQGTLVTVSSGGGGSGGGGSGGGGSGGGGSQSVLTQPPSVSAAPGQKVTISCSGSSSNIGSNYVAWYQQLPGTAPKLLIYDTNKRPSGIPDRFSGSKSGTSATLGITGLQTGDEADYYCGTWDSSLSAEVFGTGTKVTVL
In the case of B10, in assay [1], the binding result is given as “binds”.

The values above are taken from patent publication US20240180963A1.
